Laboratory results: the supplement of paper PMC7661543
± gives the standard deviation of the averaged measurements. Differences between knockout arms are mostly noise.

Test system: HCC-38
Test: relative cell number vs DMSO control (72 h) (% of DMSO); higher = less growth inhibition (more cells)
Procedure: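 QMAP-Seq: a pool of 5 breast cancer cell lines (ZR-75-1, SKBR3, HCC-38, MDA-MB-231, BT-20), each carrying 12 doxycycline-inducible Cas9 sgRNA perturbations (11 knockouts plus non-targeting sgNT), was treated with compounds for 72 h at four 10-fold doses (10 nM-10 uM or 1 nM-1 uM range). Barcodes were amplified and sequenced, and cell number was interpolated from 293T spike-in standard curves. The result is expressed as % of the median of DMSO wells. Two biological replicates.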

[1] = sgRNA knockout: sgATF3, 1000 nM
[2] = sgRNA knockout: sgATF3, 10000 nM
[3] = sgRNA knockout: sgATF4, 1000 nM
[4] = sgRNA knockout: sgATF4, 10000 nM
[5] = sgRNA knockout: sgATF6, 1000 nM
[6] = sgRNA knockout: sgATF6, 10000 nM
[7] = sgRNA knockout: sgATG7, 1000 nM
[8] = sgRNA knockout: sgATG7, 10000 nM
[9] = sgRNA knockout: sgERN1, 1000 nM
[10] = sgRNA knockout: sgERN1, 10000 nM
[11] = sgRNA knockout: sgHSF1, 1000 nM
[12] = sgRNA knockout: sgHSF1, 10000 nM
[13] = sgRNA knockout: sgHSF2, 1000 nM
[14] = sgRNA knockout: sgHSF2, 10000 nM
[15] = sgRNA knockout: sgKEAP1, 100 nM
[16] = sgRNA knockout: sgKEAP1, 1000 nM
[17] = sgRNA knockout: sgKEAP1, 10000 nM
[18] = sgRNA knockout: sgNFE2L2, 10 nM
[19] = sgRNA knockout: sgNFE2L2, 100 nM
[20] = sgRNA knockout: sgNFE2L2, 1000 nM
[21] = sgRNA knockout: sgNFE2L2, 10000 nM
[22] = sgRNA knockout: sgSLC35F2, 10 nM
[23] = sgRNA knockout: sgSLC35F2, 100 nM
[24] = sgRNA knockout: sgSLC35F2, 1000 nM
[25] = sgRNA knockout: sgSLC35F2, 10000 nM
[26] = sgRNA knockout: sgXBP1, 1000 nM
[27] = sgRNA knockout: sgXBP1, 10000 nM

COc1cccc2cc(-c3nc([C@H]4CC[C@H](C(=O)O)CC4)n4ncnc(N)c34)[nH]c12 [OSI027]
relative cell number (sgRNA knockout: sgATF3, 10 nM): 109 ± 16 | relative cell number (sgRNA knockout: sgATF3, 100 nM): 105 ± 21 | relative cell number [1]: 82.7 ± 8.3 | relative cell number [2]: 32.9 ± 1.4 | relative cell number (sgRNA knockout: sgATF4, 10 nM): 106 ± 27 | relative cell number (sgRNA knockout: sgATF4, 100 nM): 108 ± 37 | relative cell number [3]: 81 ± 6 | relative cell number [4]: 36.1 ± 3.6 | relative cell number (sgRNA knockout: sgATF6, 10 nM): 107 ± 13 | relative cell number (sgRNA knockout: sgATF6, 100 nM): 111 ± 16 | relative cell number [5]: 92.4 ± 8.8 | relative cell number [6]: 28.97 ± 0.04 | relative cell number (sgRNA knockout: sgATG7, 10 nM): 115 ± 25 | relative cell number (sgRNA knockout: sgATG7, 100 nM): 93.5 ± 12 | relative cell number [7]: 79.4 ± 6.8 | relative cell number [8]: 36.1 ± 1.7 | relative cell number (sgRNA knockout: sgERN1, 10 nM): 103 ± 13 | relative cell number (sgRNA knockout: sgERN1, 100 nM): 100 ± 9.7 | relative cell number [9]: 87.9 ± 1.7 | relative cell number [10]: 35.8 ± 2.3 | relative cell number (sgRNA knockout: sgHSF1, 10 nM): 96.2 ± 16 | relative cell number (sgRNA knockout: sgHSF1, 100 nM): 105 ± 11 | relative cell number [11]: 84 ± 9.5 | relative cell number [12]: 36.2 ± 0.5 | relative cell number (sgRNA knockout: sgHSF2, 10 nM): 106 ± 13 | relative cell number (sgRNA knockout: sgHSF2, 100 nM): 119 ± 9 | relative cell number [13]: 90.6 ± 5 | relative cell number [14]: 32 ± 3.2 | relative cell number (sgRNA knockout: sgKEAP1, 10 nM): 106 ± 33 | relative cell number [15]: 125 ± 8.7 | relative cell number [16]: 79 ± 6.3 | relative cell number [17]: 35.8 ± 0.72 | relative cell number [18]: 104 ± 35 | relative cell number [19]: 95.6 ± 24 | relative cell number [20]: 82 ± 4 | relative cell number [21]: 32.9 ± 6.2 | relative cell number [22]: 103 ± 20 | relative cell number [23]: 108 ± 19 | relative cell number [24]: 89.4 ± 6.8 | relative cell number [25]: 32.1 ± 1.5 | relative cell number (sgRNA knockout: sgXBP1, 10 nM): 120 ± 38 | relative cell number (sgRNA knockout: sgXBP1, 100 nM): 110 ± 29 | relative cell number [26]: 78.8 ± 3 | relative cell number [27]: 33.6 ± 7.6

Clc1ccc(C2(c3ccc(-c4cn[nH]c4)cc3)CCNCC2)cc1 [AT7867]
relative cell number (sgRNA knockout: sgATF3, 10 nM): 85.2 ± 2.9 | relative cell number (sgRNA knockout: sgATF3, 100 nM): 73.5 ± 10 | relative cell number [1]: 42 ± 4.1 | relative cell number [2]: 51.4 ± 3.9 | relative cell number (sgRNA knockout: sgATF4, 10 nM): 86.31 ± 0.2 | relative cell number (sgRNA knockout: sgATF4, 100 nM): 66.9 ± 9.8 | relative cell number [3]: 46.1 ± 3.4 | relative cell number [4]: 51.5 ± 4 | relative cell number (sgRNA knockout: sgATF6, 10 nM): 83.1 ± 5.6 | relative cell number (sgRNA knockout: sgATF6, 100 nM): 73.6 ± 11 | relative cell number [5]: 35.5 ± 16 | relative cell number [6]: 48.5 ± 9 | relative cell number (sgRNA knockout: sgATG7, 10 nM): 87.4 ± 10 | relative cell number (sgRNA knockout: sgATG7, 100 nM): 69.5 ± 8 | relative cell number [7]: 46.2 ± 10 | relative cell number [8]: 51 ± 6.9 | relative cell number (sgRNA knockout: sgERN1, 10 nM): 91.1 ± 3 | relative cell number (sgRNA knockout: sgERN1, 100 nM): 65.2 ± 6.7 | relative cell number [9]: 46.7 ± 4.1 | relative cell number [10]: 55 ± 1.9 | relative cell number (sgRNA knockout: sgHSF1, 10 nM): 84.7 ± 4.7 | relative cell number (sgRNA knockout: sgHSF1, 100 nM): 72.27 ± 0.11 | relative cell number [11]: 35.6 ± 4.5 | relative cell number [12]: 53.7 ± 11 | relative cell number (sgRNA knockout: sgHSF2, 10 nM): 84.7 ± 3 | relative cell number (sgRNA knockout: sgHSF2, 100 nM): 71.4 ± 1.1 | relative cell number [13]: 44 ± 2.3 | relative cell number [14]: 59 ± 1.9 | relative cell number (sgRNA knockout: sgKEAP1, 10 nM): 93.7 ± 12 | relative cell number [15]: 67 ± 12 | relative cell number [16]: 48.3 ± 0.79 | relative cell number [17]: 37.1 ± 2.1 | relative cell number [18]: 89 ± 11 | relative cell number [19]: 67.3 ± 12 | relative cell number [20]: 42.3 ± 5.2 | relative cell number [21]: 54.9 ± 1.2 | relative cell number [22]: 89.8 ± 4.1 | relative cell number [23]: 70.4 ± 1.6 | relative cell number [24]: 43.1 ± 2.2 | relative cell number [25]: 52 ± 5.4 | relative cell number (sgRNA knockout: sgXBP1, 10 nM): 89.9 ± 2.7 | relative cell number (sgRNA knockout: sgXBP1, 100 nM): 73 ± 9.1 | relative cell number [26]: 47.1 ± 5 | relative cell number [27]: 52.5 ± 2.4

C[C@@H](Nc1cc(F)cc(F)c1)c1cc(C(=O)N(C)C)cc2c(=O)cc(N3CCOCC3)oc12 [AZD8186]
relative cell number (sgRNA knockout: sgATF3, 10 nM): 113 ± 26 | relative cell number (sgRNA knockout: sgATF3, 100 nM): 124 ± 11 | relative cell number [1]: 103 ± 10 | relative cell number [2]: 89.6 ± 1.8 | relative cell number (sgRNA knockout: sgATF4, 10 nM): 98 ± 24 | relative cell number (sgRNA knockout: sgATF4, 100 nM): 118 ± 12 | relative cell number [3]: 106 ± 11 | relative cell number [4]: 82.4 ± 10 | relative cell number (sgRNA knockout: sgATF6, 10 nM): 105 ± 12 | relative cell number (sgRNA knockout: sgATF6, 100 nM): 135 ± 17 | relative cell number [5]: 96.8 ± 8.3 | relative cell number [6]: 88.2 ± 24 | relative cell number (sgRNA knockout: sgATG7, 10 nM): 103 ± 19 | relative cell number (sgRNA knockout: sgATG7, 100 nM): 110 ± 22 | relative cell number [7]: 99.3 ± 15 | relative cell number [8]: 81.6 ± 5.8 | relative cell number (sgRNA knockout: sgERN1, 10 nM): 105 ± 34 | relative cell number (sgRNA knockout: sgERN1, 100 nM): 122 ± 18 | relative cell number [9]: 105 ± 1.3 | relative cell number [10]: 89.3 ± 0.96 | relative cell number (sgRNA knockout: sgHSF1, 10 nM): 119 ± 19 | relative cell number (sgRNA knockout: sgHSF1, 100 nM): 136 ± 18 | relative cell number [11]: 119 ± 4.9 | relative cell number [12]: 100 ± 2.4 | relative cell number (sgRNA knockout: sgHSF2, 10 nM): 114 ± 44 | relative cell number (sgRNA knockout: sgHSF2, 100 nM): 130 ± 5.5 | relative cell number [13]: 112 ± 17 | relative cell number [14]: 93.5 ± 8.5 | relative cell number (sgRNA knockout: sgKEAP1, 10 nM): 118 ± 25 | relative cell number [15]: 160 ± 27 | relative cell number [16]: 106 ± 1.2 | relative cell number [17]: 104.63 ± 0.088 | relative cell number [18]: 100 ± 23 | relative cell number [19]: 113 ± 25 | relative cell number [20]: 95.8 ± 9.6 | relative cell number [21]: 78.9 ± 11 | relative cell number [22]: 106 ± 11 | relative cell number [23]: 122 ± 21 | relative cell number [24]: 100 ± 16 | relative cell number [25]: 85 ± 6 | relative cell number (sgRNA knockout: sgXBP1, 10 nM): 106 ± 33 | relative cell number (sgRNA knockout: sgXBP1, 100 nM): 117 ± 14 | relative cell number [26]: 104 ± 12 | relative cell number [27]: 88.8 ± 12
